Paper doi:10.1101/266833

Key:
Test in all cases: affinity purification with mass spectrometry
Conditions in all cases: remark: other sources report otherwise
[1] = target: T1, Upf1-TAP (S. cerevisiae), P30771
T1 chain: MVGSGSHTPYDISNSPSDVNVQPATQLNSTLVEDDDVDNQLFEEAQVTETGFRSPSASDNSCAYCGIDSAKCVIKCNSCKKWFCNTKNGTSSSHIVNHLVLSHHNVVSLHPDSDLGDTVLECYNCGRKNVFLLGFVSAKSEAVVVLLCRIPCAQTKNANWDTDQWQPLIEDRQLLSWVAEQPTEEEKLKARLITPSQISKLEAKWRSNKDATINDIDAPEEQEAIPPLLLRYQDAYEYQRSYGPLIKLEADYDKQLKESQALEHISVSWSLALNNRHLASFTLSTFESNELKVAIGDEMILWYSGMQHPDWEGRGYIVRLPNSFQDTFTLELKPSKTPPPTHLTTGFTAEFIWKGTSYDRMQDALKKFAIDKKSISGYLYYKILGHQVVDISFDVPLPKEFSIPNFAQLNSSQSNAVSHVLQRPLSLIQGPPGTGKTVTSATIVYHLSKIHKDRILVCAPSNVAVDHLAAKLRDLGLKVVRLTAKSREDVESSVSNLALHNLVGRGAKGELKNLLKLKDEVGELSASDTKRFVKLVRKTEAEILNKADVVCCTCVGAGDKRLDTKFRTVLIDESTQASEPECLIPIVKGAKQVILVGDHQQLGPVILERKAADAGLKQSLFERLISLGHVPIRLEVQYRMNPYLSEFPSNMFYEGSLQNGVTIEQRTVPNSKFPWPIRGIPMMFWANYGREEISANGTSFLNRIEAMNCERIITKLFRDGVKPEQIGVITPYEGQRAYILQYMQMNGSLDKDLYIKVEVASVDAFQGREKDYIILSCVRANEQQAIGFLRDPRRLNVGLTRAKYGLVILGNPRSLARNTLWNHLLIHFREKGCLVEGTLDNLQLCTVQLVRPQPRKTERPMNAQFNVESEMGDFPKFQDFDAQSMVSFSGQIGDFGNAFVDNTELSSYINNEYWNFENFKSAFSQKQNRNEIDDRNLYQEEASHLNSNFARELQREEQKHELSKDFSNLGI

[2] = target: T2, TAP-Upf1-FL (S. cerevisiae), P30771
T2 chain: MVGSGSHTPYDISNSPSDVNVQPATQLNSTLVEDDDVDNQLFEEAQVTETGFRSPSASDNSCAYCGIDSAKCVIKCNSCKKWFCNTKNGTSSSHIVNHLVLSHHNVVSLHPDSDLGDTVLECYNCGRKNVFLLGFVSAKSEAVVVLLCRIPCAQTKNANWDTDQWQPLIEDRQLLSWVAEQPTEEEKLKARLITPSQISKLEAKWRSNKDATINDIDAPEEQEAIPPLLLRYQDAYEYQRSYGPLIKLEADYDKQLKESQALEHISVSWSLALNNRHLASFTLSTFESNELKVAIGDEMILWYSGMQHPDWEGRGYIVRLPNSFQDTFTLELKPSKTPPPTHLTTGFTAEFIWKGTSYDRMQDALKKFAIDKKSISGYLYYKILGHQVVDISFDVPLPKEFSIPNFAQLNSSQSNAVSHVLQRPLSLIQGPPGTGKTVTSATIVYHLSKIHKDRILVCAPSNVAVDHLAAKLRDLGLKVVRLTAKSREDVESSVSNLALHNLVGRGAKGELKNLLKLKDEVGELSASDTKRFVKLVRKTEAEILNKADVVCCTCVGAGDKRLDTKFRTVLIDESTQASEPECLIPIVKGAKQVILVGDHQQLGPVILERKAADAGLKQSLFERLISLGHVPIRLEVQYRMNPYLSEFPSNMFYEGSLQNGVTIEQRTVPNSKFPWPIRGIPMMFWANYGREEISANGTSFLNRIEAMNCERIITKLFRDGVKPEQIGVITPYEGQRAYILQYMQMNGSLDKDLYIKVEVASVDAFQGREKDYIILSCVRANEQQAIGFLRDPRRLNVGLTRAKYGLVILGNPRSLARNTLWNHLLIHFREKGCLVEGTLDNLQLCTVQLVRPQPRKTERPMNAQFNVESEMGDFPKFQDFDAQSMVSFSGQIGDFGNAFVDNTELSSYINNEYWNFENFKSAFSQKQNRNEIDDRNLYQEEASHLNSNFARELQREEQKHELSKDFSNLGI

[3] = target: T2, TAP-Upf1-FL (S. cerevisiae), P30771
[4] = target: T1, Upf1-TAP (S. cerevisiae), P30771

Measured: binding

B1: Dcp2, P53550 1-970 (enzyme)
chain: MSLPLRHALENVTSVDRILEDLLVRFIINCPNEDLSSVERELFHFEEASWFYTDFIKLMNPTLPSLKIKSFAQLIIKLCPLVWKWDIRVDEALQQFSKYKKSIPVRGAAIFNENLSKILLVQGTESDSWSFPRGKISKDENDIDCCIREVKEEIGFDLTDYIDDNQFIERNIQGKNYKIFLISGVSEVFNFKPQVRNEIDKIEWFDFKKISKTMYKSNIKYYLINSMMRPLSMWLRHQRQIKNEDQLKSYAEEQLKLLLGITKEEQIDPGRELLNMLHTAVQANSNNNAVSNGQVPSSQELQHLKEQSGEHNQQKDQQSSFSSQQQPSIFPSLSEPFANNKNVIPPTMPMANVFMSNPQLFATMNGQPFAPFPFMLPLTNNSNSANPIPTPVPPNFNAPPNPMAFGVPNMHNLSGPAVSQPFSLPPAPLPRDSGYSSSSPGQLLDILNSKKPDSNVQSSKKPKLKILQRGTDLNSIKQNNNDETAHSNSQALLDLLKKPTSSQKIHASKPDTSFLPNDSVSGIQDAEYEDFESSSDEEVETARDERNSLNVDIGVNVMPSEKDSRRSQKEKPRNDASKTNLNASAESNSVEWGPGKSSPSTQSKQNSSVGMQNKYRQEIHIGDSDAYEVFESSSDEEDGKKLEELEQTQDNSKLISQDILKENNFQDGEVPHRDMPTESNKSINETVGLSSTTNTVKKVPKVKILKRGETFASLANDKKAFDSSSNVSSSKDLLQMLRNPISSTVSSNQQSPKSQHLSGDEEIMMMLKRNSVSKPQNSEENASTSSINDANASELLGMLKQKEKDITAPKQPYNVDSYSQKNSAKGLLNILKKNDSTGYPRTEGGPSSEMSTSMKRNDATNNQELDKNSTELLNYLKPKPLNDGYENISNKDSSHELLNILHGNKNSSAFNNNVYATDGYSLASDNNENSSNKLLNMLQNRSSAINEPNFDVRSNGTSGSNELLSILHRK
binds: all assays above

Results are given in words; binding and its absence hold for the method and conditions named. Binding seen in cells or lysates may run through a third protein. Here binding means that the protein was enriched with, or labelled near, the bait; the list need not be complete.
